{"sequences": {"note": "Sequences of proteins named here, by UniProt entry; tags and fusion partners are left off.", "UniProt Q0JBA9, entry or part of it": "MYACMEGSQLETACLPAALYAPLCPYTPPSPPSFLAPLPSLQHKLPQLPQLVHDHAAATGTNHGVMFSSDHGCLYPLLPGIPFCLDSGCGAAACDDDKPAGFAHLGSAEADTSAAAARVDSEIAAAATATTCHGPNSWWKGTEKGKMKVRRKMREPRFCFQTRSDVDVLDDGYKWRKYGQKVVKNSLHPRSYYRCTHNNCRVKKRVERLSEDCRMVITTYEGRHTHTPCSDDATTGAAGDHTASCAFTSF"}, "source": "paper PMC7819943", "about": "“Rice protein-binding microarrays: a tool to detect cis-acting elements near promoter regions in rice”", "note": "The other results are listed elsewhere or left out.", "data": [{"molecular_target": "OsWRKY34 (Oryza sativa, UniProt Q0JBA9 1-250)", "test": "protein-binding microarray (RPBM); PBS, 2% BSA, 51.3 ng/ul salmon testes DNA, 50 uM zinc acetate, 200 nM TF, 25 C, 1 h; high values mean tight binding", "details": "protein: recombinant; tags: N-terminal polyhistidine and DsRed monomer fusion (pET32a); label: CyDye5-dUTP incorporated in the synthesized complementary strand; 3' TTTTT single-stranded linker to array surface; dsDNA, one strand shown", "in_short": "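Binding signal here means per-feature fluorescence intensity in arbitrary units. The values were read on an Axon 4000B scanner after a custom Agilent array, double-stranded by primer extension with Cy5-dUTP, was incubated with 200 nM protein at 25 °C for 1 h in PBS with 2% BSA, salmon testes DNA and 50 µM zinc acetate, then washed. The proteins were transcription factors with an N-terminal polyhistidine tag and DsRed, expressed in E. coli BL21-CodonPlus and purified on Ni–NTA.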", "values": [{"sequence": "CACAATGTCAGGCAACCTCGTCATATATTTGATCCCGCCGCGGAGTCACCTAGTGCAG", "binding signal": "8470 fluorescence intensity (a.u.)"}, {"sequence": "CACGCACACACCGCGGCGCCGCCCACTCGATCGAAGCACCCGGAGTCACCTAGTGCAG", "binding signal": "8410 fluorescence intensity (a.u.)"}, {"sequence": "CCAATCCTATAAACCGCTACTCTGGTTCCATAATTCTTACCGGAGTCACCTAGTGCAG", "binding signal": "11100 fluorescence intensity (a.u.)"}, {"sequence": "ATATGTCCCGCTGGGGTGTCCACAATCTGCACGCCATATCCGGAGTCACCTAGTGCAG", "binding signal": "8660 fluorescence intensity (a.u.)"}, {"sequence": "GCTTTTCCTGTCAATGTTTGTTTGTGTAATGTTGTTATACCGGAGTCACCTAGTGCAG", "binding signal": "11600 fluorescence intensity (a.u.)"}, {"sequence": "ATATATATATATATATATATATATATAATCTACCTTGTAACGGAGTCACCTAGTGCAG", "binding signal": "9470 fluorescence intensity (a.u.)"}, {"sequence": "GGAGGAGGAGGTGGTGGTGGTGGTGAAGCCGCGGAGGTGCCGGAGTCACCTAGTGCAG", "binding signal": "18000 fluorescence intensity (a.u.)"}, {"sequence": "TCCTCGCCTCTCGGGCACGCACCACTGACCACCCTCCTTTCGGAGTCACCTAGTGCAG", "binding signal": "9010 fluorescence intensity (a.u.)"}, {"sequence": "ACATAGAGGGGCGGGTTAATCAGGAGGTAAGAACAAGTGGCGGAGTCACCTAGTGCAG", "binding signal": "11700 fluorescence intensity (a.u.)"}, {"sequence": "TCCAAGTCCCGCTGCCCTCGCCGCCAATCGGTCGCCCGTACGGAGTCACCTAGTGCAG", "binding signal": "8990 fluorescence intensity (a.u.)"}, {"sequence": "AATACCCTCATGGTCGTTCTTCCACCTCCTTAAATAGCTACGGAGTCACCTAGTGCAG", "binding signal": "10100 fluorescence intensity (a.u.)"}, {"sequence": "TAAATGGTGGTGTTTTTCTCGCTTTGAGTCACATGGTTATCGGAGTCACCTAGTGCAG", "binding signal": "12100 fluorescence intensity (a.u.)"}, {"sequence": "ACCTGCTTTGCCATGGTTCTCTTCCTCCTCCAACTCTGCCCGGAGTCACCTAGTGCAG", "binding signal": "8210 fluorescence intensity (a.u.)"}, {"sequence": "GTTCTACCAGGGGTCCTGTGTGTGCGTGCATGCATGGCGACGGAGTCACCTAGTGCAG", "binding signal": "8550 fluorescence intensity (a.u.)"}, {"sequence": "CTAGAAATCGCCACGTTTCATCCACCCCGCCAACCCCATGCGGAGTCACCTAGTGCAG", "binding signal": "8440 fluorescence intensity (a.u.)"}, {"sequence": "TCTACTCCTTTTGTCATTATTGTCCTCTAATTTCGTTTTGCGGAGTCACCTAGTGCAG", "binding signal": "11200 fluorescence intensity (a.u.)"}, {"sequence": "TCTCTCTTTTCCTCTGCATCTCCTGCTCCTTTTTGTTTTGCGGAGTCACCTAGTGCAG", "binding signal": "8160 fluorescence intensity (a.u.)"}, {"sequence": "GGTAATTCGTACTTTTCCCCTGCTTATATGATCATTGTATCGGAGTCACCTAGTGCAG", "binding signal": "10000 fluorescence intensity (a.u.)"}, {"sequence": "CCAGCCACCATCCCCATATCCCTGCTCTCTGTCTTTCTCCCGGAGTCACCTAGTGCAG", "binding signal": "11000 fluorescence intensity (a.u.)"}, {"sequence": "ATACTCGTTTTTCGTTTTTTTTTTAGTTGTGCTGCTACCTCGGAGTCACCTAGTGCAG", "binding signal": "10100 fluorescence intensity (a.u.)"}, {"sequence": "GGTAATGGGAGAGGCTGATGTGGCGTGAAATCTCTTGCGTCGGAGTCACCTAGTGCAG", "binding signal": "9020 fluorescence intensity (a.u.)"}, {"sequence": "TTCCATTCCGTTAACTTGCACTCCTGTCAATTTCTATATACGGAGTCACCTAGTGCAG", "binding signal": "8360 fluorescence intensity (a.u.)"}, {"sequence": "AGATGCTCATAGGGGTAGGGTGGCCAGCGAGGCGCCTGTGCGGAGTCACCTAGTGCAG", "binding signal": "9960 fluorescence intensity (a.u.)"}, {"sequence": "TGAAGTTGCATTTAATCTCTTTGCATCCAAGTATTTGGAACGGAGTCACCTAGTGCAG", "binding signal": "8980 fluorescence intensity (a.u.)"}, {"sequence": "TGGCATGCTTCAGGAAGCTGATATAGGGGTTGGCATTAGTCGGAGTCACCTAGTGCAG", "binding signal": "10200 fluorescence intensity (a.u.)"}, {"sequence": "TGCCGCGGGGTGACCTGTGTACTGTGATCTATATCCTCTCCGGAGTCACCTAGTGCAG", "binding signal": "8100 fluorescence intensity (a.u.)"}, {"sequence": "ACCATCCAGCGCGTAACCGATTCCCTGTACATTCGGCCGCCGGAGTCACCTAGTGCAG", "binding signal": "9080 fluorescence intensity (a.u.)"}, {"sequence": "ACGCCTTCTTGCTCTCTATCTCTCTCTTTTTCGCATCCTTCGGAGTCACCTAGTGCAG", "binding signal": "11100 fluorescence intensity (a.u.)"}, {"sequence": "CTCTACTCGCCAATTTTCCCTTCTTATTTTCGCTATTTCTCGGAGTCACCTAGTGCAG", "binding signal": "13800 fluorescence intensity (a.u.)"}, {"sequence": "CGGCCCGGCCCATCTATCTCCCAGCTCGCCCGGTCCTTCTCGGAGTCACCTAGTGCAG", "binding signal": "8610 fluorescence intensity (a.u.)"}, {"sequence": "ACTATTTTTTTACTAGTTTACTCTATTGTTAACATGAATACGGAGTCACCTAGTGCAG", "binding signal": "9660 fluorescence intensity (a.u.)"}, {"sequence": "TCGAAAGTTGGAAGTTTGGGGTAGTTGCGGGTGAACTAAACGGAGTCACCTAGTGCAG", "binding signal": "8930 fluorescence intensity (a.u.)"}, {"sequence": "CCACCGTGTGGCAATCGATGTCCACGCCCTTGTCGCCACTCGGAGTCACCTAGTGCAG", "binding signal": "8400 fluorescence intensity (a.u.)"}, {"sequence": "CACCTTCTTTGATCACATGCCTACTTAGCAGTACTTACCACGGAGTCACCTAGTGCAG", "binding signal": "10700 fluorescence intensity (a.u.)"}, {"sequence": "CTCTCTCTTTCTCTCTCTCTCTGCACAACTAAAACTATATCGGAGTCACCTAGTGCAG", "binding signal": "10100 fluorescence intensity (a.u.)"}, {"sequence": "GCCGCCACCCACCCACTCGACCGTTGCCACCGCTGCTTCCCGGAGTCACCTAGTGCAG", "binding signal": "11400 fluorescence intensity (a.u.)"}, {"sequence": "GCAACGCACACCCGCACGCACGCGCCCACGCCAACGCCACCGGAGTCACCTAGTGCAG", "binding signal": "8370 fluorescence intensity (a.u.)"}, {"sequence": "TTCTCTGTTCCTCCACATTCCTCTCTACCTCCTCATTCATCGGAGTCACCTAGTGCAG", "binding signal": "11800 fluorescence intensity (a.u.)"}, {"sequence": "GCTTGTACTATCACGTTTTGGTTTGATCTTGTAGCCCACACGGAGTCACCTAGTGCAG", "binding signal": "9700 fluorescence intensity (a.u.)"}, {"sequence": "CGAAAATTCCCTGAATATTTGATCTTTCTGTTGACCAATTCGGAGTCACCTAGTGCAG", "binding signal": "8910 fluorescence intensity (a.u.)"}, {"sequence": "TCGCGATTTTCATGCAAACTGTACAATTAGTTTTTTCTTTCGGAGTCACCTAGTGCAG", "binding signal": "9710 fluorescence intensity (a.u.)"}, {"sequence": "TCTTATATGATCAACTGTGATGCCACCCAATTATCCGCAGCGGAGTCACCTAGTGCAG", "binding signal": "8040 fluorescence intensity (a.u.)"}, {"sequence": "ACACCAACCACGCCCAATATTTGCAGATAGCCCACTGGTTCGGAGTCACCTAGTGCAG", "binding signal": "8570 fluorescence intensity (a.u.)"}, {"sequence": "GTTGGATAACTGCAGTGTAGTGAACTCCCTGGTGTTTTTTCGGAGTCACCTAGTGCAG", "binding signal": "9820 fluorescence intensity (a.u.)"}, {"sequence": "ACCACCGGTCACCACCACACGCTCCCTCGTCGACATCTATCGGAGTCACCTAGTGCAG", "binding signal": "8300 fluorescence intensity (a.u.)"}, {"sequence": "GCCCACCATTTCCCCAAACATTTCCACACATTCCTACAATCGGAGTCACCTAGTGCAG", "binding signal": "13600 fluorescence intensity (a.u.)"}, {"sequence": "AAAGTTTATATTCCTATGTTTGATTCGTATTCTCGTGACCCGGAGTCACCTAGTGCAG", "binding signal": "8950 fluorescence intensity (a.u.)"}, {"sequence": "AGAATTTTGGTTAATATCGTATTATGTCTTATATGAATTACGGAGTCACCTAGTGCAG", "binding signal": "8570 fluorescence intensity (a.u.)"}, {"sequence": "TGCTATTTACTACAATAACCATGGCTACTGCTATTAGGACCGGAGTCACCTAGTGCAG", "binding signal": "8300 fluorescence intensity (a.u.)"}, {"sequence": "CAAGCGGGTCCCATATCTTTTTTATTTGTTTTGCTGACTACGGAGTCACCTAGTGCAG", "binding signal": "9510 fluorescence intensity (a.u.)"}, {"sequence": "GGCCGAGGCCGCGCAGGACGGCGCCCTTGGACAGCAACGCCGGAGTCACCTAGTGCAG", "binding signal": "9480 fluorescence intensity (a.u.)"}, {"sequence": "TATAATACTTGACGTGTGCACTTAATTAACTCTTTTTGGCCGGAGTCACCTAGTGCAG", "binding signal": "8270 fluorescence intensity (a.u.)"}, {"sequence": "TCTCTTGTGTGGTTAATATCTATATCTATCCTGGTGTAGTCGGAGTCACCTAGTGCAG", "binding signal": "8290 fluorescence intensity (a.u.)"}, {"sequence": "ACTTTGACCTGTTGTATCTCGCTAAGTCATCTCGTGGGGCCGGAGTCACCTAGTGCAG", "binding signal": "10900 fluorescence intensity (a.u.)"}]}]}
